Experimental data from patent US7378447B2, “Muscarinic agonists” (Eli Lilly and Company, priority 2003, dated 2008).

Test system: Male Sprague-Dawley rats
Conditions: scopolamine s.c. immediately after the sampling phase; three-hour delay

CN1[C@@H]2C[C@@H](OC(=O)[C@H](CO)c3ccccc3)C[C@H]1[C@@H]1O[C@@H]12 [Scopolamine, scopolamine]
retention (errors in retention session): disrupted retention after a three-hour delay in a dose-related fashion
